Results are given in words; binding and its absence hold for the method and conditions named. Binding seen in cells or lysates may run through a third protein. Binding calls can cover weak binding; strength is not graded here. Sequences can lack the tags named with a protein.
Biological target: T1, Kaiso (human (endogenous in HeLa-GFP-centrin and SK-LMS-1)) (UniProt Q86T24)
T1 sequence: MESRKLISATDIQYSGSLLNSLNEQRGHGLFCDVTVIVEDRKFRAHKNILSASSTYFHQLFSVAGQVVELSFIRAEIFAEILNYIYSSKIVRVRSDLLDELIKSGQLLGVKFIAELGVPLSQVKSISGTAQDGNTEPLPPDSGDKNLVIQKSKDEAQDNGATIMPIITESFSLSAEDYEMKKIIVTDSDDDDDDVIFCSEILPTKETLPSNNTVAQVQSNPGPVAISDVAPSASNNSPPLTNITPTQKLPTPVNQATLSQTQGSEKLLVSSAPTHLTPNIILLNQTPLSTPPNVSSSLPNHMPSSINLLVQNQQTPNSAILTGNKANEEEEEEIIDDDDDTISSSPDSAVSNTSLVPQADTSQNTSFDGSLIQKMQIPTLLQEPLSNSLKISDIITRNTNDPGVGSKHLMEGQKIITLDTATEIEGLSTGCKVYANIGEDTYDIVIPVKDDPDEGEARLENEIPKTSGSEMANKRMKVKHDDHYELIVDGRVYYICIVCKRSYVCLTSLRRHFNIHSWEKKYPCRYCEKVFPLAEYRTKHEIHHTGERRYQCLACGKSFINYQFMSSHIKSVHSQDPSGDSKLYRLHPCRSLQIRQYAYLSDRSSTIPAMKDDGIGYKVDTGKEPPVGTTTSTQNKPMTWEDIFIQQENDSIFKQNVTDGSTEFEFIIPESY
Experiment: co-IP; endogenous proteins; lysates of HeLa-GFP-centrin and SK-LMS-1 cells in 145 mM NaCl, 5 mM EDTA, 2 mM EGTA, 10 mM Tris-HCl pH 7.4, 1% Triton X-100; precipitated with anti-Kaiso pAb S1337 on Dynabeads protein G; western blot

By UniProt entry, the sequences of proteins in these tests, tags left out. Where a name states a change or a piece, a line headed by the entry shows the natural chain unless it says otherwise.
UniProt P23258: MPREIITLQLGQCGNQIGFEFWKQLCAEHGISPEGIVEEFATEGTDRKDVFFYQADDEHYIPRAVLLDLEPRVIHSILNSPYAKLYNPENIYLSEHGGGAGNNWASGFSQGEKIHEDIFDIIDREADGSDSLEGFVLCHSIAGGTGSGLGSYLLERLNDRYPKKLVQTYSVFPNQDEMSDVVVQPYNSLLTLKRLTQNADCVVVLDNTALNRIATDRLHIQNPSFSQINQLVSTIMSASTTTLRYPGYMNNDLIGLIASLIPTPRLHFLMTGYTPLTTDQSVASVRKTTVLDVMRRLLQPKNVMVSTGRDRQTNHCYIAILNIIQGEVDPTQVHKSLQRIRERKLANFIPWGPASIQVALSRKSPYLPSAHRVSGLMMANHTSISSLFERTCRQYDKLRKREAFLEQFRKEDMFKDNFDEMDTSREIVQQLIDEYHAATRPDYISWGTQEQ

binding: binds
Substance: γ-tubulin (from UniProt P23258)
